PubChem BioAssay AID1053209 | Peter MacCallum Cancer Centre | 2014
Screen: 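Gene losses that combine with doxorubicin to kill mouse bone cancer cells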 (follow-up of hits). Cells: mouse primary osteosarcoma cells. Reagents: single siRNA against mouse genes, 25 nM (text also states 40 nM). Duration: about 120 h (48 h before drug, then 72 h with drug). Challenge: doxorubicin 100 nM (about IC30-40), added 48 h after transfection, for 72 h. Measured: 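Viability measured by ATP luminescence with and without doxorubicin, each replicate scaled to non-targeting siRNA NT1, averaged over two replicates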. Reading the numbers: viability with doxorubicin, vs NT1: higher = more viable cells under doxorubicin; viability without drug, vs NT1: higher = more viable cells without drug. Rule for the call: 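Counted as active (class LC dox) if viability falls to 0.7 of NT1 or below under doxorubicin but stays within 0.7 to 1.1 without drug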.
The deposit covers about 1,580 reagents; below is a part drawn at random. In the full data, 207 (13%) got an active call. 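Rows are single siRNAs; four siRNAs per gene were tested, a gene counting as confirmed only when at least two agree.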 Reagents against one gene are numbered here. Not all columns of the deposit are shown.

Lrrcc1 (GeneID 71710) #1
- combined effect class: high viability only with doxorubicin
- viability with doxorubicin, vs NT1: 1.18
- viability without drug, vs NT1: 1.08
- outcome: inactive

Lrrcc1 (GeneID 71710) #2
- combined effect class: normal viability with and without drug
- viability with doxorubicin, vs NT1: 0.95
- viability without drug, vs NT1: 0.98
- outcome: inactive

Lrrcc1 (GeneID 71710) #3
- combined effect class: normal viability with and without drug
- viability with doxorubicin, vs NT1: 0.94
- viability without drug, vs NT1: 0.88
- outcome: inactive

Lrrcc1 (GeneID 71710) #4
- combined effect class: normal viability with and without drug
- viability with doxorubicin, vs NT1: 0.86
- viability without drug, vs NT1: 0.98
- outcome: inactive

Hormad1 (GeneID 67981) #1
- combined effect class: normal viability with and without drug
- viability with doxorubicin, vs NT1: 0.99
- viability without drug, vs NT1: 0.86
- outcome: inactive

Hormad1 (GeneID 67981) #2
- combined effect class: normal viability with and without drug
- viability with doxorubicin, vs NT1: 0.78
- viability without drug, vs NT1: 0.92
- outcome: inactive

Hormad1 (GeneID 67981) #3
- combined effect class: normal viability with and without drug
- viability with doxorubicin, vs NT1: 0.8
- viability without drug, vs NT1: 0.87
- outcome: inactive

Hormad1 (GeneID 67981) #4
- combined effect class: normal viability with and without drug
- viability with doxorubicin, vs NT1: 1.01
- viability without drug, vs NT1: 0.88
- outcome: inactive

Slc19a3 (GeneID 80721) #1
- combined effect class: normal viability with and without drug
- viability with doxorubicin, vs NT1: 0.74
- viability without drug, vs NT1: 0.8
- outcome: inactive

Slc19a3 (GeneID 80721) #2
- combined effect class: normal viability with and without drug
- viability with doxorubicin, vs NT1: 0.98
- viability without drug, vs NT1: 1.05
- outcome: inactive

Slc19a3 (GeneID 80721) #3
- combined effect class: low viability only with doxorubicin; normal without drug
- viability with doxorubicin, vs NT1: 0.65
- viability without drug, vs NT1: 0.82
- outcome: active

Slc19a3 (GeneID 80721) #4
- combined effect class: normal viability with and without drug
- viability with doxorubicin, vs NT1: 1.05
- viability without drug, vs NT1: 1.09
- outcome: inactive

Cela1 (GeneID 109901) #1
- combined effect class: low viability only with doxorubicin; normal without drug
- viability with doxorubicin, vs NT1: 0.34
- viability without drug, vs NT1: 0.79
- outcome: active

Cela1 (GeneID 109901) #2
- combined effect class: low viability only with doxorubicin; normal without drug
- viability with doxorubicin, vs NT1: 0.68
- viability without drug, vs NT1: 0.94
- outcome: active

Cela1 (GeneID 109901) #3
- combined effect class: normal viability with and without drug
- viability with doxorubicin, vs NT1: 1
- viability without drug, vs NT1: 0.98
- outcome: inactive

Cela1 (GeneID 109901) #4
- combined effect class: low viability with and without drug
- viability with doxorubicin, vs NT1: 0.4
- viability without drug, vs NT1: 0.58
- outcome: inactive

Il12rb2 (GeneID 16162) #1
- combined effect class: normal viability with and without drug
- viability with doxorubicin, vs NT1: 1.04
- viability without drug, vs NT1: 0.99
- outcome: inactive

Il12rb2 (GeneID 16162) #2
- combined effect class: normal viability with and without drug
- viability with doxorubicin, vs NT1: 0.88
- viability without drug, vs NT1: 0.97
- outcome: inactive

Il12rb2 (GeneID 16162) #3
- combined effect class: normal viability with and without drug
- viability with doxorubicin, vs NT1: 1.08
- viability without drug, vs NT1: 0.92
- outcome: inactive

Il12rb2 (GeneID 16162) #4
- combined effect class: normal viability with and without drug
- viability with doxorubicin, vs NT1: 1.02
- viability without drug, vs NT1: 1.04
- outcome: inactive

Cdc50a (GeneID 69981) #1
- combined effect class: normal viability with and without drug
- viability with doxorubicin, vs NT1: 0.96
- viability without drug, vs NT1: 1.08
- outcome: inactive

Cdc50a (GeneID 69981) #2
- combined effect class: low viability only with doxorubicin; normal without drug
- viability with doxorubicin, vs NT1: 0.68
- viability without drug, vs NT1: 0.86
- outcome: active

Cdc50a (GeneID 69981) #3
- combined effect class: normal viability with and without drug
- viability with doxorubicin, vs NT1: 1
- viability without drug, vs NT1: 0.95
- outcome: inactive

Cdc50a (GeneID 69981) #4
- combined effect class: low viability only with doxorubicin; normal without drug
- viability with doxorubicin, vs NT1: 0.64
- viability without drug, vs NT1: 0.94
- outcome: active
